In the supplement of paper PMC3682954:
Where a name gives a salt, the structure may show the parent alone. ± gives the standard deviation of the averaged measurements. Some of the results follow. Repeats are few or missing, and single values can be far off.

System: RAW 264.7
Assay: cell viability (MTT) relative to vehicle control; higher = more viable cells
Conditions: stimulus: HMGB1 5 ug/ml, 18 h
[1] = compound concentration: 1 ug/ml

Row | SMILES | cell viability (compound concentration: 3 uM) [%] | cell viability [1] [%]
1 | C[C@]12CCC(=O)C=C1CC[C@@H]1[C@@H]2CC[C@@]2(C)[C@H]1CC[C@]2(O)C(=O)CO [Cortexolone] | 105 | –
2 | COC(=O)C1=C(C)NC(C)=C(C(=O)OC(C)(C)CN(C)CCC(c2ccccc2)c2ccccc2)C1c1cccc([N+](=O)[O-])c1 (stereo unspecified) [Lercanidipine hydrochloride hemihydrate] | 104 | –
3 | O=C(O)/C=C/C(O)c1ccc(Cl)cc1 (stereo unspecified) | 113 | –
4 | CC(C)NCC(O)COc1ccc(CC(N)=O)cc1 (stereo unspecified) [Atenolol] | 106 | –
5 | CC(C)NCC(O)COc1ccc(CC(N)=O)cc1 (stereo unspecified) | 113 | –
6 | NC(Cn1ccc(=O)c(O)c1)C(=O)O (stereo unspecified) | 96.2 | –
7 | CNCCc1cnc(CCC(c2ccccc2)c2ccccc2)[nH]1 [N-Methylhistaprodifen dioxalate salt] | 100 | –
8 | COC(=O)Nc1nc2cc(Sc3ccccc3)ccc2[nH]1 | 62.1 | –
9 | COC(=O)Nc1nc2cc(Sc3ccccc3)ccc2[nH]1 [Fenbendazole] | 55 ± 10 | –
10 | COc1ccccc1-c1cc(=O)c2c(OC)cccc2o1 [2',5-Dimethoxyflavone] | – | 98.7
11 | CC(=O)N(CC(O)CO)c1c(I)c(C(=O)NCC(O)CO)c(I)c(C(=O)NCC(O)CO)c1I (stereo unspecified) [Iohexol] | 87.1 | –
12 | CN(CCCCCCCCCCN(C)C(=O)Oc1cccc([N+](C)(C)C)c1)C(=O)Oc1cccc([N+](C)(C)C)c1 [Demecarium bromide] | 112 | –
13 | CN1CCN(CC(=O)N2c3ccccc3C(=O)Nc3cccnc32)CC1 | 113 | –
14 | CN1CCN(CC(=O)N2c3ccccc3C(=O)Nc3cccnc32)CC1 [Pirenzepine] | 103 | –
15 | CN1CCN(CC(=O)N2c3ccccc3C(=O)Nc3cccnc32)CC1 [Pirenzepine dihydrochloride] | 99.2 ± 11 | –
16 | C=C1C(=O)O[C@@H]2C[C@@]3(C)CCCC(=C)[C@@H]3C[C@H]12 [Isoalantolactone] | – | 101
17 | O=C1c2c(O)cc(O)cc2O[C@H](c2ccc(O)c(O)c2)[C@H]1O (racemic) [(±)-Taxifolin] | 110 | –
18 | Cn1c(=O)c2c(ncn2CC2OCCO2)n(C)c1=O [Doxofylline] | 99.9 ± 1.5 | –
19 | CC1(C)O[C@@H]2[C@@H](CO[C@@]3(COS(N)(=O)=O)OC(C)(C)O[C@@H]23)O1 [Topiramate] | 96.3 | –
20 | CC1(C)O[C@@H]2[C@@H](CO[C@@]3(COS(N)(=O)=O)OC(C)(C)O[C@@H]23)O1 | 101 ± 9.4 | –
21 | COc1cc2ccc(=O)oc2cc1O [Scopoletin] | – | 87.9
22 | CC[N+](CC)(CC(=O)Nc1c(C)cccc1C)Cc1ccccc1 [Denatonium benzoate] | 70.7 | –
23 | CC[N+](CC)(CC(=O)Nc1c(C)cccc1C)Cc1ccccc1 | 96.6 | –
24 | C=N[C@@H](C(=O)N[C@@H]1C(=O)N2[C@@H]1SC(C)(C)[C@@H]2C(=O)O)c1ccccc1 [Metampicillin sodium salt] | 120 | –
25 | COc1cc(NS(=O)(=O)c2ccc(N)cc2)nc(OC)n1 [Sulfadimethoxine] | 101 ± 6 | –
26 | COc1cc(NS(=O)(=O)c2ccc(N)cc2)nc(OC)n1 | 113 | –
27 | O=C1N=C(O)NC1(c1ccccc1)c1ccccc1 [Phenytoin sodium] | 107 | –

Row | SMILES | cell viability (compound concentration: 3 uM) [%] | cell viability [1] [%]
28 | O=C1N=C(O)NC1(c1ccccc1)c1ccccc1 | 108 | –
29 | O=C1Nc2ccc(I)cc2/C1=C/c1cc(Br)c(O)c(Br)c1 | 106 | –
30 | COC(=O)C1OC(Oc2cc(O)c3c(c2)O[C@H](c2ccccc2O)CC3=O)C(O)C(O)C1O (stereo partly specified) | – | 105
31 | O=C(O)CCCC[C@@H]1CCSS1 | 113 | –
32 | Cc1cccc(Nc2ccncc2S(=O)(=O)NC(=O)NC(C)C)c1 | 92.1 | –
33 | Cc1cccc(Nc2ccncc2S(=O)(=O)NC(=O)NC(C)C)c1 [Torsemide] | 92.5 | –
34 | COc1cc2c(cc1OC)-c1c/c(=N\c3c(C)cc(C)cc3C)n(C)c(=O)n1CC2 [Trequinsin HCl] | 105 | –
35 | COc1cc2c(cc1OC)-c1c/c(=N\c3c(C)cc(C)cc3C)n(C)c(=O)n1CC2 [Trequinsin hydrochloride] | 109 | –
36 | O=C(C=Cc1ccc(O)cc1)c1ccccc1O [2',4-Dihydroxychalcone] | – | 104
37 | NC1=NCC2c3ccccc3Cc3ccccc3N12 (stereo unspecified) [Epinastine hydrochloride] | 108 | –
38 | NC(=O)N1c2ccccc2CC(=O)c2ccccc21 | 104 | –
39 | NC(=O)N1c2ccccc2CC(=O)c2ccccc21 [Oxcarbazepine] | 102 ± 15 | –
40 | NC(=O)N1c2ccccc2CC(=O)c2ccccc21 [Trileptal] | 97.8 | –
41 | CC(=O)OCC(=O)[C@@]1(O)[C@H](OC(C)=O)C[C@H]2[C@@H]3CCC4=CC(=O)C=C[C@]4(C)[C@@]3(F)[C@@H](O)C[C@@]21C | 115 | –
42 | CC(C)Cn1cnc2c(N)nc3ccccc3c21 [Imiquimod] | 95.9 ± 17 | –
43 | CC(C)NC(=N)NC(=N)Nc1ccc(Cl)cc1 [Proguanil hydrochloride] | 82.5 | –
44 | CC(C)NC(=N)NC(=N)Nc1ccc(Cl)cc1 | 108 | –
45 | CN(C)CC[C@@H](c1ccc(Br)cc1)c1ccccn1 | 100 | –
46 | O=C1OC(=O)[C@H]2[C@@H]1[C@@H]1CC[C@H]2O1 | 129 | –
47 | O=C1OC(=O)[C@H]2[C@@H]1[C@@H]1CC[C@H]2O1 [Norcantharidin] | 108 | 88.5
48 | O=c1[nH]c(=O)n([C@H]2C[C@H](O)[C@@H](CO)O2)cc1C(F)(F)F [Trifluridine] | 95.2 | –
49 | O=c1[nH]c(=O)n([C@H]2C[C@H](O)[C@@H](CO)O2)cc1C(F)(F)F | 103 | –
50 | O=c1[nH]c(=O)n([C@H]2C[C@H](O)[C@@H](CO)O2)cc1C(F)(F)F [Trifluorothymidine] | – | 90.7
51 | Nc1nc2c(ncn2[C@@H]2O[C@H](CO)[C@@H](O)[C@@H]2O)c(=O)[nH]1 [Ara-G hydrate] | 111 | –
52 | Cc1nnc(SCC2=C(C(=O)O)N3C(=O)[C@@H](NC(=O)Cn4cnnn4)[C@H]3SC2)s1 [Cefazolin sodium salt] | 130 | –
53 | Cc1nnc(SCC2=C(C(=O)O)N3C(=O)[C@@H](NC(=O)Cn4cnnn4)[C@H]3SC2)s1 | 106 | –
54 | Cc1nnc(SCC2=C(C(=O)O)N3C(=O)[C@@H](NC(=O)Cn4cnnn4)[C@H]3SC2)s1 [Cefazolin sodium] | 105 | –

Row | SMILES | cell viability (compound concentration: 3 uM) [%] | cell viability [1] [%]
55 | CC1(C)S[C@@H]2[C@H](NC(=O)COc3ccccc3)C(=O)N2[C@H]1C(=O)O | 109 | –
56 | CCCC(=O)O[C@]1(C(=O)CO)CC[C@H]2[C@@H]3CCC4=CC(=O)CC[C@]4(C)[C@H]3[C@@H](O)C[C@@]21C [Hydrocortisone 17-butyrate] | – | 113
57 | CCCC(=O)O[C@]1(C(=O)CO)CC[C@H]2[C@@H]3CCC4=CC(=O)CC[C@]4(C)[C@H]3[C@@H](O)C[C@@]21C | 111 | –
58 | C[S+](CC[C@H](N)C(=O)I)C[C@H]1O[C@@H](n2cnc3c(N)ncnc32)[C@H](O)[C@@H]1O (stereo partly drawn) [S-(5'-Adenosyl)-L-methionine iodide] | – | 92.7
59 | CCCCC1(C2CCCC2)Cc2cc(OCC(=O)O)c(Cl)c(Cl)c2C1=O (stereo in doubt) [R(+)-Butylindazone] | 95.6 | –
60 | COc1ccc2c3c1O[C@H]1C[C@@H](O)C=C[C@@]31CCN(C)C2 [(-)Galanthamine] | – | 85.2
61 | COc1ccc2c3c1O[C@H]1C[C@@H](O)C=C[C@@]31CCN(C)C2 [Galanthamine hydrobromide] | 109 | –
62 | COc1ccc2c3c1O[C@H]1C[C@@H](O)C=C[C@@]31CCN(C)C2 [Galanthamine] | 90.9 ± 6.1 | –
63 | COc1ccc2c3c1O[C@H]1C[C@@H](O)C=C[C@@]31CCN(C)C2 | 102 | –
64 | COc1cc2c(cc1OC)[C@@H]1C(=O)c3ccc4c(c3O[C@@H]1CO2)C=CC(C)(C)O4 | 82.4 | –
65 | S=c1[nH]cnc2nc[nH]c12 | 95.3 ± 1.5 | –
66 | S=c1[nH]cnc2nc[nH]c12 [Mercaptopurine] | 112 | –
67 | Cc1cc2nc3c(=O)[nH]c(=O)nc-3n(C[C@H](O)[C@H](O)[C@H](O)COP(=O)(O)OP(=O)(O)OC[C@H]3O[C@@H](n4cnc5c(N)ncnc54)[C@H](O)[C@@H]3O)c2cc1C [Flavin adenine dinucleotide disodium salt] | – | 107
68 | C[C@H]1O[C@@H](O[C@H]2[C@@H](O)C[C@H](O[C@H]3[C@@H](O)C[C@H](O[C@H]4CC[C@@]5(C)[C@H](CC[C@@H]6[C@@H]5CC[C@]5(C)[C@@H](C7=CC(=O)OC7)CC[C@]65O)C4)O[C@@H]3C)O[C@@H]2C)C[C@H](O)[C@@H]1O [Digitoxin] | – | 103
69 | C[C@H]1O[C@@H](O[C@H]2[C@@H](O)C[C@H](O[C@H]3[C@@H](O)C[C@H](O[C@H]4CC[C@@]5(C)[C@H](CC[C@@H]6[C@@H]5CC[C@]5(C)[C@@H](C7=CC(=O)OC7)CC[C@]65O)C4)O[C@@H]3C)O[C@@H]2C)C[C@H](O)[C@@H]1O | 100 | –
70 | CCCCCCCCNC(C)C(O)c1ccc(SC(C)C)cc1 (stereo unspecified) | 88.4 | –
71 | CCCCCCCCNC(C)C(O)c1ccc(SC(C)C)cc1 (stereo unspecified) [Suloctidil] | 131 | –
72 | CN(Cc1ccc(C(C)(C)C)cc1)Cc1cccc2ccccc12 [Butenafine] | 119 ± 4 | –
73 | NCCCCN [Putrescine dihydrochloride] | 109 | –
74 | C1CCN2CC3CC(CN4CCCC[C@H]34)C2C1 (stereo partly specified) | – | 94.2
75 | O=C(CCCN1CCC(O)(c2ccc(Cl)cc2)CC1)c1ccc(F)cc1 | 89.9 | –
76 | O=C(CCCN1CCC(O)(c2ccc(Cl)cc2)CC1)c1ccc(F)cc1 [Haloperidol] | 92.7 ± 3.5 | –
77 | O=c1[nH]c2cc(Cl)ccc2c(O)c1-c1cccc(Oc2ccccc2)c1 | 97.5 | –
78 | Cc1ccc(C)c(OCCCC(C)(C)C(=O)O)c1 | 106 | –
79 | Cc1ccc(C)c(OCCCC(C)(C)C(=O)O)c1 [Gemfibrozil] | 95.2 ± 6.8 | –
80 | O=C(O)C[C@H](O)C[C@H](O)/C=C/c1c(C2CC2)nc2ccccc2c1-c1ccc(F)cc1 | 105 | –

Quoted at random: 3 records from the list, in no set order.
Row | SMILES | cell viability (compound concentration: 3 uM) [%] | cell viability [1] [%]
31 | O=C(O)CCCC[C@@H]1CCSS1 | 113 | –
67 | Cc1cc2nc3c(=O)[nH]c(=O)nc-3n(C[C@H](O)[C@H](O)[C@H](O)COP(=O)(O)OP(=O)(O)OC[C@H]3O[C@@H](n4cnc5c(N)ncnc54)[C@H](O)[C@@H]3O)c2cc1C [Flavin adenine dinucleotide disodium salt] | – | 107
42 | CC(C)Cn1cnc2c(N)nc3ccccc3c21 [Imiquimod] | 95.9 ± 17 | –
